These are yes or no findings as the source states them, for the method shown.
Biological target: human CASKIN2 SAM2 domain (550-634) (human) (UniProt Q8WXE0)
Assay: NMR titration; 1H-15N HSQC of 15N-labeled SAM2 at 100 μM, then unlabeled SAM1 added at a 1:1 stoichiometric ratio; both purified

Sequences of proteins named here, by UniProt entry; tags and fusion partners are left off. Residues count along the entry.
human CASKIN2 SAM1 domain (483-549) (Q8WXE0, residues 483-549): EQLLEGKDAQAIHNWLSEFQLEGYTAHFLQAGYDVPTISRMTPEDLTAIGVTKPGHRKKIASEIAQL
human CASKIN2 SAM2 domain (550-634) (Q8WXE0, residues 550-634): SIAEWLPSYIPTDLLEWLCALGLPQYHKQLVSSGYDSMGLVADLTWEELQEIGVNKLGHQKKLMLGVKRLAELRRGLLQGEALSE

Question: Which binding does the source give for “human CASKIN2 SAM1 domain (483-549) (from UniProt Q8WXE0 483-549) (domain or fragment)” here?
Answer: The binding was “no binding (tested: 100 μM, 1:1 stoichiometric ratio)”.

From article PMC4994250
